Reference: publication PMC10758069
No constants are given. Whether binding was seen depends on the method and setting. In cells and extracts the contact can be indirect. Some results given as binding are weak or reduced against the parent protein; the word gives no strength. For some assays here: Tags and fused reporters may be left off the sequences shown.

Amino acid sequences for entries named in this document (tags omitted).
UniProt Q8CFI0: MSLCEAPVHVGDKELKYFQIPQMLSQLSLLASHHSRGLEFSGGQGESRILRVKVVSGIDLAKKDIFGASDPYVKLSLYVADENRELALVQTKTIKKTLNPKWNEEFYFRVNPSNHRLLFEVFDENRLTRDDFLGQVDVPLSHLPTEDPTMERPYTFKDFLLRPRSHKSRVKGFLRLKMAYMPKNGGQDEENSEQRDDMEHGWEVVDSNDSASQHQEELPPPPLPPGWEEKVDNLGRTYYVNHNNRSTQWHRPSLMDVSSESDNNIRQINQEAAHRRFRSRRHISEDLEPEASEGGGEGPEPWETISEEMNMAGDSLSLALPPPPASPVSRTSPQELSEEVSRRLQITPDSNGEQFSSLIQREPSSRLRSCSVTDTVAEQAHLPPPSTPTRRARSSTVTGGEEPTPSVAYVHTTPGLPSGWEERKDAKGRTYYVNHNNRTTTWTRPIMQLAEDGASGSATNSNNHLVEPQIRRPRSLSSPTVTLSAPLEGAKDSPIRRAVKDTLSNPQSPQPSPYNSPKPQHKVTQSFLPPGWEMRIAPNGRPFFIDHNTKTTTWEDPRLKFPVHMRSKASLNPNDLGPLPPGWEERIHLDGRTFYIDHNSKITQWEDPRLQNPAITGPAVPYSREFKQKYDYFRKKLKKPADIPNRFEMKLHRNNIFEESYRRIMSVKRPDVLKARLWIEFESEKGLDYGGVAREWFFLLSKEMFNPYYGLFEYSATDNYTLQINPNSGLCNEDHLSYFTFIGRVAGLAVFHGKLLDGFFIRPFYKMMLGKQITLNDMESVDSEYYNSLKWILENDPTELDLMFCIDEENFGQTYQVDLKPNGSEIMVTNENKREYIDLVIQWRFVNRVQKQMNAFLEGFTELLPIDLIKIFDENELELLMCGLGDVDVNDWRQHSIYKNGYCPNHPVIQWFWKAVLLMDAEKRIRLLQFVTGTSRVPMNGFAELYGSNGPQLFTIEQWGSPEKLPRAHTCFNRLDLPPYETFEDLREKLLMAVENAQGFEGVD

Key:
[1] = target: T1, Pit-1 wild type, expressed from plasmid in HEK293T cells (mouse) (UniProt Q61609); experiment: co-IP; HEK293T cells transfected with the indicated plasmids (Pit-1, Nedd4-2, with or without SGK3-S486D) for 48 h; lysates precipitated with anti-Pit-1 antibody; blot with anti-Nedd4-2, anti-Pit-1, anti-SGK3 (Figure 7H)
T1 sequence: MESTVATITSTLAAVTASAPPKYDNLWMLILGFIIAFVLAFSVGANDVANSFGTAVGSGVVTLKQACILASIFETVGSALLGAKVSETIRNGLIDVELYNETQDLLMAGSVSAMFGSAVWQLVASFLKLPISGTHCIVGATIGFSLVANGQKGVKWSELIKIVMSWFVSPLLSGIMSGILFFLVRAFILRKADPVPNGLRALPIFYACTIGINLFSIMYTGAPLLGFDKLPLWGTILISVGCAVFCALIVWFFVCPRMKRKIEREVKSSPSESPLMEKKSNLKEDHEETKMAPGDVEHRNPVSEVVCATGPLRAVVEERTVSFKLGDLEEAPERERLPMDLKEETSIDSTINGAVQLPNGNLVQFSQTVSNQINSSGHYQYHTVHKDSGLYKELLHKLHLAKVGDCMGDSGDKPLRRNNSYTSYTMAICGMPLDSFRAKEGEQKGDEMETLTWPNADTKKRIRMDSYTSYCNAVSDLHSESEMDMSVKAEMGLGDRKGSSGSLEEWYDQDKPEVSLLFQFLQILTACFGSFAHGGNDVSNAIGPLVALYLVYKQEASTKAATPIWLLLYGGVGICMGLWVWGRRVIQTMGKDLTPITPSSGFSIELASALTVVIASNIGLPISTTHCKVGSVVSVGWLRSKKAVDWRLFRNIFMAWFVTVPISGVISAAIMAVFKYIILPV

[2] = target: T2, type III sodium-dependent phosphate cotransporter-1 (Pit-1), endogenous in mouse VSMCs (mouse (endogenous in mouse VSMCs)) (UniProt Q61609); experiment: co-IP; mouse VSMCs treated with or without high Pi (3 mM, 48 h); whole-cell lysates (about 1 mg protein) precipitated with anti-Pit-1 antibody and protein A+G agarose overnight at 4 °C; blot with anti-Pit-1 and anti-SGK3
T2 sequence: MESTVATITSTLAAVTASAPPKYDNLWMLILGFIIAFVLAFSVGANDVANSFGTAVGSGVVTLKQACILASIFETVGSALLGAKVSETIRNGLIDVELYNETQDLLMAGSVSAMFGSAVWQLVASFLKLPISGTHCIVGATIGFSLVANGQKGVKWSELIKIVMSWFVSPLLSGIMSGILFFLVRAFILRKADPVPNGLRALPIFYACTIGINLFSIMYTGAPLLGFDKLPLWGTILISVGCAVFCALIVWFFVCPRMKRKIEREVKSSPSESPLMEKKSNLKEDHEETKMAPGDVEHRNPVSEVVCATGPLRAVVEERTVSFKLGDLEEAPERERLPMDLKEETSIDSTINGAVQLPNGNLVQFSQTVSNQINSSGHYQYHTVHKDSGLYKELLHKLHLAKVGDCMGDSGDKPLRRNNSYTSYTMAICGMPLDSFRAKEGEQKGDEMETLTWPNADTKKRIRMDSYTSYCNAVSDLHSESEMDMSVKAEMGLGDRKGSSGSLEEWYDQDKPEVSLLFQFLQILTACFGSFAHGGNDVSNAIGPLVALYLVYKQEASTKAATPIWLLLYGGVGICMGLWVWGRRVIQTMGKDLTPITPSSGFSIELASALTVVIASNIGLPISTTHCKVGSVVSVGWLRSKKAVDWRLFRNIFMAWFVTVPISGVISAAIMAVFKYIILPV

[3] = target: T1, Pit-1 wild type, expressed from plasmid in HEK293T cells (mouse); experiment: co-IP; HEK293T cells co-transfected with WT SGK3 and Pit-1 plasmids for 48 h; whole-cell lysates precipitated with anti-Pit-1 antibody (Figure 4D) or anti-SGK3 antibody (Figure 4E), protein A+G agarose, overnight at 4 °C; blot with anti-Pit-1 and anti-SGK3
[4] = target: T3, WT SGK3, expressed from plasmid in HEK293T cells (UniProt Q9ERE3); experiment: as above
T3 sequence: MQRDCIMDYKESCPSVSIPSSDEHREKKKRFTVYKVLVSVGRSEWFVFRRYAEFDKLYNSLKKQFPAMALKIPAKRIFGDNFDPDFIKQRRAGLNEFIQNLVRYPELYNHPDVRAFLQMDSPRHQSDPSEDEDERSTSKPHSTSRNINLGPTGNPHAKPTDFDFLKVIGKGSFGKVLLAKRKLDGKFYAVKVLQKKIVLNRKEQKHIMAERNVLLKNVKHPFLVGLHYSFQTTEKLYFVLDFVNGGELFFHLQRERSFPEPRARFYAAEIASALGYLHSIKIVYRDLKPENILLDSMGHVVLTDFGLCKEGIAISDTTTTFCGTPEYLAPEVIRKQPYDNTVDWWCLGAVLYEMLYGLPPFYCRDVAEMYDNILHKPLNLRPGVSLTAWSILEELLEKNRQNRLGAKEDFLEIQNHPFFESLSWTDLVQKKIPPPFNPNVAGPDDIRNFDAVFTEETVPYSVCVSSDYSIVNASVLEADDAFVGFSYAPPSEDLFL

[5] = target: T1, Pit-1 wild type, expressed from plasmid in HEK293T cells (mouse); experiment: co-IP; HEK293T cells co-transfected with SGK3-S486D and Pit-1 wild type or Pit-1 T468A plasmid; precipitating antibody not told for this panel (Figure 4I)

**Q.** With “neural precursor cells expressing developmentally downregulated protein 4 subtype 2 (Nedd4-2), mouse, expressed in HEK293T cells (from UniProt Q8CFI0 1-1004) (enzyme)” as the molecule, how does the binding [1] read?
**A.** binds

B1: serum- and glucocorticoid-induced kinase 3 (SGK3), endogenous in mouse VSMCs (enzyme, UniProt Q9ERE3 1-496)
chain: MQRDCIMDYKESCPSVSIPSSDEHREKKKRFTVYKVLVSVGRSEWFVFRRYAEFDKLYNSLKKQFPAMALKIPAKRIFGDNFDPDFIKQRRAGLNEFIQNLVRYPELYNHPDVRAFLQMDSPRHQSDPSEDEDERSTSKPHSTSRNINLGPTGNPHAKPTDFDFLKVIGKGSFGKVLLAKRKLDGKFYAVKVLQKKIVLNRKEQKHIMAERNVLLKNVKHPFLVGLHYSFQTTEKLYFVLDFVNGGELFFHLQRERSFPEPRARFYAAEIASALGYLHSIKIVYRDLKPENILLDSMGHVVLTDFGLCKEGIAISDTTTTFCGTPEYLAPEVIRKQPYDNTVDWWCLGAVLYEMLYGLPPFYCRDVAEMYDNILHKPLNLRPGVSLTAWSILEELLEKNRQNRLGAKEDFLEIQNHPFFESLSWTDLVQKKIPPPFNPNVAGPDDIRNFDAVFTEETVPYSVCVSSDYSIVNASVLEADDAFVGFSYAPPSEDLFL
**Q.** B1 was tested. Which binding [2] did it give?
**A.** binds

B2: WT SGK3, expressed from plasmid in HEK293T cells (enzyme, UniProt Q9ERE3 1-496)
chain: MQRDCIMDYKESCPSVSIPSSDEHREKKKRFTVYKVLVSVGRSEWFVFRRYAEFDKLYNSLKKQFPAMALKIPAKRIFGDNFDPDFIKQRRAGLNEFIQNLVRYPELYNHPDVRAFLQMDSPRHQSDPSEDEDERSTSKPHSTSRNINLGPTGNPHAKPTDFDFLKVIGKGSFGKVLLAKRKLDGKFYAVKVLQKKIVLNRKEQKHIMAERNVLLKNVKHPFLVGLHYSFQTTEKLYFVLDFVNGGELFFHLQRERSFPEPRARFYAAEIASALGYLHSIKIVYRDLKPENILLDSMGHVVLTDFGLCKEGIAISDTTTTFCGTPEYLAPEVIRKQPYDNTVDWWCLGAVLYEMLYGLPPFYCRDVAEMYDNILHKPLNLRPGVSLTAWSILEELLEKNRQNRLGAKEDFLEIQNHPFFESLSWTDLVQKKIPPPFNPNVAGPDDIRNFDAVFTEETVPYSVCVSSDYSIVNASVLEADDAFVGFSYAPPSEDLFL
**Q.** Which binding [3] does the source give for B2 here?
**A.** binds

B3: Pit-1 wild type, expressed from plasmid in HEK293T cells (protein, UniProt Q61609 1-681)
chain: MESTVATITSTLAAVTASAPPKYDNLWMLILGFIIAFVLAFSVGANDVANSFGTAVGSGVVTLKQACILASIFETVGSALLGAKVSETIRNGLIDVELYNETQDLLMAGSVSAMFGSAVWQLVASFLKLPISGTHCIVGATIGFSLVANGQKGVKWSELIKIVMSWFVSPLLSGIMSGILFFLVRAFILRKADPVPNGLRALPIFYACTIGINLFSIMYTGAPLLGFDKLPLWGTILISVGCAVFCALIVWFFVCPRMKRKIEREVKSSPSESPLMEKKSNLKEDHEETKMAPGDVEHRNPVSEVVCATGPLRAVVEERTVSFKLGDLEEAPERERLPMDLKEETSIDSTINGAVQLPNGNLVQFSQTVSNQINSSGHYQYHTVHKDSGLYKELLHKLHLAKVGDCMGDSGDKPLRRNNSYTSYTMAICGMPLDSFRAKEGEQKGDEMETLTWPNADTKKRIRMDSYTSYCNAVSDLHSESEMDMSVKAEMGLGDRKGSSGSLEEWYDQDKPEVSLLFQFLQILTACFGSFAHGGNDVSNAIGPLVALYLVYKQEASTKAATPIWLLLYGGVGICMGLWVWGRRVIQTMGKDLTPITPSSGFSIELASALTVVIASNIGLPISTTHCKVGSVVSVGWLRSKKAVDWRLFRNIFMAWFVTVPISGVISAAIMAVFKYIILPV
**Q.** How did the binding [4] turn out when B3 was run?
**A.** binds

B4: constitutively activated S486D mutant of mouse SGK3 (SGK3-S486D), expressed in HEK293T cells (enzyme, UniProt Q9ERE3 1-496)
chain: MQRDCIMDYKESCPSVSIPSSDEHREKKKRFTVYKVLVSVGRSEWFVFRRYAEFDKLYNSLKKQFPAMALKIPAKRIFGDNFDPDFIKQRRAGLNEFIQNLVRYPELYNHPDVRAFLQMDSPRHQSDPSEDEDERSTSKPHSTSRNINLGPTGNPHAKPTDFDFLKVIGKGSFGKVLLAKRKLDGKFYAVKVLQKKIVLNRKEQKHIMAERNVLLKNVKHPFLVGLHYSFQTTEKLYFVLDFVNGGELFFHLQRERSFPEPRARFYAAEIASALGYLHSIKIVYRDLKPENILLDSMGHVVLTDFGLCKEGIAISDTTTTFCGTPEYLAPEVIRKQPYDNTVDWWCLGAVLYEMLYGLPPFYCRDVAEMYDNILHKPLNLRPGVSLTAWSILEELLEKNRQNRLGAKEDFLEIQNHPFFESLSWTDLVQKKIPPPFNPNVAGPDDIRNFDAVFTEETVPYSVCVSSDYSIVNASVLEADDAFVGFDYAPPSEDLFL
**Q.** How did the binding [5] turn out when B4 was run?
**A.** binds
